Laboratory results from article PMC10748205.
These are yes or no findings as the source states them, for the method shown. Some results given as binding are weak or reduced against the parent protein; the word gives no strength.

Sequences of proteins named here, by UniProt entry; tags and fusion partners are left off. Residues count along the entry.
UniProt P33426, residues 20-660: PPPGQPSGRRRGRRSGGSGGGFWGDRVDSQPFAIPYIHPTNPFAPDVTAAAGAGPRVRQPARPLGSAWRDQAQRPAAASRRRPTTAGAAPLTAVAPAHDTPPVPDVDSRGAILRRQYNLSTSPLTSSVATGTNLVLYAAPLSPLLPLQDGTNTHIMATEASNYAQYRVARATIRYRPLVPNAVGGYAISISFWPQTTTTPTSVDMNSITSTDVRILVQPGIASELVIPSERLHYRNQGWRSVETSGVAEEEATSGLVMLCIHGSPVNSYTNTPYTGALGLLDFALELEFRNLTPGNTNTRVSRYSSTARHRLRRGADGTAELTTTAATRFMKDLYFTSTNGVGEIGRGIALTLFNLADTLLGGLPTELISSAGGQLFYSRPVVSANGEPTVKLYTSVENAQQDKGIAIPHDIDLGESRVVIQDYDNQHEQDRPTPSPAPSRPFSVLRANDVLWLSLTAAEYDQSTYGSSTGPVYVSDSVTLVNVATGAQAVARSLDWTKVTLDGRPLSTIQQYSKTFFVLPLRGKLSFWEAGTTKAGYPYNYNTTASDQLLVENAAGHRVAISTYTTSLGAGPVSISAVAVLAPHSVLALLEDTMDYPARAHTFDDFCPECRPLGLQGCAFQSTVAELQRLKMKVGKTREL
UniProt O43570, residues 25-354: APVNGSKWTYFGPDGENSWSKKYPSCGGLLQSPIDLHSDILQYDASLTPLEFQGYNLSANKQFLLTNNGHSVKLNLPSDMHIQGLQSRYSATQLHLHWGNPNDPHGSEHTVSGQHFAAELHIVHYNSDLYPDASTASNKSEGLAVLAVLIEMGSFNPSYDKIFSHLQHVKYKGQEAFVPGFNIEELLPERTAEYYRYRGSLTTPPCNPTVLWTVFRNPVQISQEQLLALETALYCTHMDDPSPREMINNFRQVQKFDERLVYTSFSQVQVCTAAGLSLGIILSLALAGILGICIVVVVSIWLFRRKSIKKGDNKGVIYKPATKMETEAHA

Target: Gt-1 ORF2 MAPPIT (hepatitis E virus genotype 1 (Sar-55)) (UniProt P33426)
Experiment: two-hybrid

CA12 (from UniProt O43570 25-354) was tested, and the binding was “binds”.

B1: ADCY3 (protein, UniProt O60266 1-1144)
chain: MPRNQGFSEPEYSAEYSAEYSVSLPSDPDRGVGRTHEISVRNSGSCLCLPRFMRLTFVPESLENLYQTYFKRQRHETLLVLVVFAALFDCYVVVMCAVVFSSDKLASLAVAGIGLVLDIILFVLCKKGLLPDRVTRRVLPYVLWLLITAQIFSYLGLNFARAHAASDTVGWQVFFVFSFFITLPLSLSPIVIISVVSCVVHTLVLGVTVAQQQQEELKGMQLLREILANVFLYLCAIAVGIMSYYMADRKHRKAFLEARQSLEVKMNLEEQSQQQENLMLSILPKHVADEMLKDMKKDESQKDQQQFNTMYMYRHENVSILFADIVGFTQLSSACSAQELVKLLNELFARFDKLAAKYHQLRIKILGDCYYCICGLPDYREDHAVCSILMGLAMVEAISYVREKTKTGVDMRVGVHTGTVLGGVLGQKRWQYDVWSTDVTVANKMEAGGIPGRVHISQSTMDCLKGEFDVEPGDGGSRCDYLEEKGIETYLIIASKPEVKKTATQNGLNGSALPNGAPASSKSSSPALIETKEPNGSAHSSGSTSEKPEEQDAQADNPSFPNPRRRLRLQDLADRVVDASEDEHELNQLLNEALLERESAQVVKKRNTFLLSMRFMDPEMETRYSVEKEKQSGAAFSCSCVVLLCTALVEILIDPWLMTNYVTFMVGEILLLILTICSLAAIFPRAFPKKLVAFSTWIDRTRWARNTWAMLAIFILVMANVVDMLSCLQYYTGPSNATAGMETEGSCLENPKYYNYVAVLSLIATIMLVQVSHMVKLTLMLLVAGAVATINLYAWRPVFDEYDHKRFREHDLPMVALEQMQGFNPGLNGTDRLPLVPSKYSMTVMVFLMMLSFYYFSRHVEKLARTLFLWKIEVHDQKERVYEMRRWNEALVTNMLPEHVARHFLGSKKRDEELYSQTYDEIGVMFASLPNFADFYTEESINNGGIECLRFLNEIISDFDSLLDNPKFRVITKIKTIGSTYMAASGVTPDVNTNGFASSNKEDKSERERWQHLADLADFALAMKDTLTNINNQSFNNFMLRIGMNKGGVLAGVIGARKPHYDIWGNTVNVASRMESTGVMGNIQVVEETQVILREYGFRFVRRGPIFVKGKGELLTFFLKGRDKLATFPNGPSVTLPHQVVDNS
In the case of B1, the binding is reported as “binds”.
